Paper doi:10.1101/2025.01.30.635686 (bioRxiv, 2025)
These are yes or no findings as the source states them, for the method shown. Sequences can lack the tags named with a protein.

Target: ^ΔNYME1L (catalytic domain of YME1L without the hex-tag) (homo sapiens) (UniProt Q96TA2)
Assay: SEC

B1: ^ΔNYME1L (catalytic domain of YME1L without the hex-tag) (domain or fragment, UniProt Q96TA2 317-773)
chain: RFRTTTGLDSAVDPVQMKNVTFEHVKGVEEAKQELQEVVEFLKNPQKFTILGGKLPKGILLVGPPGTGKTLLARAVAGEADVPFYYASGSEFDEMFVGVGASRIRNLFREAKANAPCVIFIDELDSVGGKRIESPMHPYSRQTINQLLAEMDGFKPNEGVIIIGATNFPEALDNALIRPGRFDMQVTVPRPDVKGRTEILKWYLNKIKFDQSVDPEIIARGTVGFSGAELENLVNQAALKAAVDGKEMVTMKELEFSKDKILMGPERRSVEIDNKNKTITAYHESGHAIIAYYTKDAMPINKATIMPRGPTLGHVSLLPENDRWNETRAQLLAQMDVSMGGRVAEELIFGTDHITTGASSDFDNATKIAKRMVTKFGMSEKLGVMTYSDTGKLSPETQSAIEQEIRILLRDSYERAKHILKTHAKEHKNLAEALLTYETLDAKEIQIVLEGKKLEVR
**Q.** For B1, which binding is on record?
**A.** no binding
